Test results reported in article doi:10.1101/2020.04.20.033787 (bioRxiv, 2020).
No constants are given. Whether binding was seen depends on the method and setting. In cells and extracts the contact can be indirect.

Legend:
[1] = biological target: T1, Swi6 (S. cerevisiae (endogenous in S288C BY4741 strains)) (UniProt P09959); assay: co-IP
T1 sequence: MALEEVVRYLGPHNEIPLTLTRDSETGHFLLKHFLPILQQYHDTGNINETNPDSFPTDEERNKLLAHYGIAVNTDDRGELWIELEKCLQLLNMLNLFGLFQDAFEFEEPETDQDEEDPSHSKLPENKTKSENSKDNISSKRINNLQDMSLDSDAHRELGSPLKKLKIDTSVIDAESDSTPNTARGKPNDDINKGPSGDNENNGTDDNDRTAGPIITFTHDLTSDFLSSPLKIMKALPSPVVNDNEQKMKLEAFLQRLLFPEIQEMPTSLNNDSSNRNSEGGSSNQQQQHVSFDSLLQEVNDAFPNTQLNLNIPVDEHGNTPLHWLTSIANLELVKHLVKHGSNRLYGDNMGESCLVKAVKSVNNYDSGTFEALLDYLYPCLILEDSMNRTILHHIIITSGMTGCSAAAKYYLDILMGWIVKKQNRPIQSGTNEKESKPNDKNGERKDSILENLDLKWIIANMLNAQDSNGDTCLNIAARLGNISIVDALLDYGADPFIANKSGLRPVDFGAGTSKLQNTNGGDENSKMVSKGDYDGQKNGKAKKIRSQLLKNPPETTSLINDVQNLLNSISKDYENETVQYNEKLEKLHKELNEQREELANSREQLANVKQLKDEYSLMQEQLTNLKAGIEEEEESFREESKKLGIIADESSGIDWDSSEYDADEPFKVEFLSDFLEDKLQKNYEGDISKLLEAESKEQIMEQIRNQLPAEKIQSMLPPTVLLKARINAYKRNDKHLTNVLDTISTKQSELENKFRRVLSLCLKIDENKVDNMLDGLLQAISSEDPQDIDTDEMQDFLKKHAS

[2] = biological target: T2, Swi4 (S. cerevisiae (endogenous in S288C BY4741 strains)) (UniProt P25302); assay: co-IP
T2 sequence: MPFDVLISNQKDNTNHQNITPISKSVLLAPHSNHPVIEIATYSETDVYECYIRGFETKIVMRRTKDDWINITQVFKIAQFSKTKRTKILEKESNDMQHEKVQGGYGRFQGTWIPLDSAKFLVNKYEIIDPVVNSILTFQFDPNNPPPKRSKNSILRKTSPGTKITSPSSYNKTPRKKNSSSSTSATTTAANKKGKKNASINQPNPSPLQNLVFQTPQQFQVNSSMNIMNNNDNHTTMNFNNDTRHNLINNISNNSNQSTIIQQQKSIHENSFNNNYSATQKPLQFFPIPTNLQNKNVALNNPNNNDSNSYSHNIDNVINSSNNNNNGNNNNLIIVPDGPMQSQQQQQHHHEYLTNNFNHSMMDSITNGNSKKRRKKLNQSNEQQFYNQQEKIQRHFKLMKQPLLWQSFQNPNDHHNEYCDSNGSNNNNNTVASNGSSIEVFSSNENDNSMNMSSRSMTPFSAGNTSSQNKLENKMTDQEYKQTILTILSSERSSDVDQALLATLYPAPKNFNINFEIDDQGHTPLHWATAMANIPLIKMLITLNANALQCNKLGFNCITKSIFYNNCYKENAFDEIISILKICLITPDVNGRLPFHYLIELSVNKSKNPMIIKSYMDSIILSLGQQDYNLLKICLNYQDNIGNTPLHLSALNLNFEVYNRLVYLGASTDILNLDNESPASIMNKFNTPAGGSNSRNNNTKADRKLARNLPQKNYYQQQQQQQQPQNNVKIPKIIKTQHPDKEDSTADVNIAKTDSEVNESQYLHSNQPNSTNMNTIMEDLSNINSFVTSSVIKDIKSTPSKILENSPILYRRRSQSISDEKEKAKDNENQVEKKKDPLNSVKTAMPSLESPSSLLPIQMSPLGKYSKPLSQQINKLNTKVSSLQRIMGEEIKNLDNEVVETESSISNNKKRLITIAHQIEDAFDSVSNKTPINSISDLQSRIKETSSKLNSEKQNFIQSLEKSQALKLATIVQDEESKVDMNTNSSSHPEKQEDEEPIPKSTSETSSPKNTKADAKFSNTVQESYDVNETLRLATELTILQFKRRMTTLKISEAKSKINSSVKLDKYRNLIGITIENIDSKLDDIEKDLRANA

binding [1]: no binding
binding [2]: no binding
Substance: fast-migrating form of Nrs1^13MYC (S. cerevisiae)
